{
  "source": "PubChem BioAssay AID504444",
  "about": "(National Center for Advancing Translational Sciences (NCATS), 2011)",
  "note": "Hit rate of the full screen: of about 360,000 compounds, about 7,500 (2.1%) were called active. Inconclusive results, whose numbers are uncertain, are shown with a selection of clear calls. The call rests on the fitted dose curve; in most records, active means well fitted inhibition curve with a large enough effect; inconclusive means small, poorly fitted or top-dose-only effect, or effect the other way; inactive means flat fitted curve, though single readings scatter. Potencies of inconclusive entries are doubtful fits and often do not repeat. On the % scale 0 is the no-effect control and ±100 the full control effect; potency means the concentration at half of the fitted maximal effect.",
  "data": [
    {"assay": "Nrf2 qHTS screen for inhibitors; further: nearly all actives have a fitted effect of over 60% in size", "settings": "A549 ARE-Fluc reporter, luciferase luminescence, 18-24 h; activity change, negative = inhibition: at 46 µM (top of the series)", "summary_of_the_method": "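A549 ARE_Fluc cells (5000/well, 5% FBS OPTI-MEM) pre-incubated 2 h, then treated with compounds 18-24 h at 37C/5% CO2 in concentration-response. CellTiter-Fluor viability read first; BugLite luciferase luminescence after 15 min at room temperature gives Nrf2 activity.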", "values": [
      {"smiles": "O=c1cc(N2CCCCC2)c(-c2ccccc2)nn1Cc1ccc(Cl)cc1Cl", "Potency": "inconclusive: 29.1 µM [falling, single point]"},
      {"smiles": "CCC(=O)Nc1sc(C(=O)Nc2ccccc2F)c(C)c1C(=O)OC", "Potency": "inconclusive: 0.411 µM [activator, full curve, poor fit]"},
      {"smiles": "Cc1sc2ncn(CC(=O)NCCCC(=O)Nc3ccc(C(C)C)cc3)c(=O)c2c1C", "Potency": "active: 29.1 µM"},
      {"smiles": "CC(C)(C)c1ccc(-c2noc(-c3ccno3)n2)cc1", "Potency": "inconclusive: 4.11 µM [activator, partial curve]"},
      {"smiles": "CCOC(=O)c1c(NC(=O)C2c3ccccc3Oc3ccccc32)sc(C(C)=O)c1C", "Potency": "inconclusive: 29.1 µM [falling, single point]"},
      {"smiles": "Cc1cccc(-c2noc(CNC(=O)c3ccc(C)cc3C)n2)c1", "Potency": "inconclusive: 29.1 µM [falling, single point]"},
      {"smiles": "COCC1CCCN(C(=O)c2cc(COc3ccc(C(C)=O)cc3)on2)C1", "note": "(stereo not drawn)", "Potency": "inconclusive: 10.3 µM [activator, partial curve]"},
      {"smiles": "N#C/C(=C\\c1ccc(OCc2ccc(C(=O)O)cc2)cc1)C(=O)N1CCOCC1", "Potency": "inconclusive: 5.8 µM [activator, full curve]"},
      {"smiles": "COc1ccc(-c2nc(CSCC(=O)NCc3ccco3)c(C)o2)cc1", "activity change, negative = inhibition": "inactive: -9.16%"},
      {"smiles": "CCC(C)(C)C1CCC2(CC1)NC(=O)N(CC(=O)NCCc1ccc(OC)c(OC)c1)C2=O", "note": "(stereo not drawn)", "Potency": "inconclusive: 25.9 µM [falling, partial curve, poor fit]"},
      {"smiles": "CC(=O)N1CCCc2cc(S(=O)(=O)NCCC3=CCCCC3)ccc21", "Potency": "inconclusive: 4.47 µM [falling, partial curve]"},
      {"smiles": "COC(=O)c1ccc(C)c(NS(=O)(=O)c2ccc(C)c([N+](=O)[O-])c2)c1", "Potency": "inconclusive: 23.1 µM [falling, single point]"},
      {"smiles": "COc1ccc(CN(C)c2ncnc3sccc23)c(OC)c1OC", "Potency": "inconclusive: 29.1 µM [falling, single point]"},
      {"smiles": "COc1ccc(-c2ccc(NS(=O)(=O)c3ccc([N+](=O)[O-])cc3)cc2)nn1", "Potency": "inconclusive: 16.4 µM [falling, single point]"},
      {"smiles": "Nc1c(C(=O)Nc2ccccc2Cl)nnn1Cc1cccc(Cl)c1", "Potency": "inconclusive: 7.31 µM [falling, partial curve, poor fit]"},
      {"smiles": "COc1ccc(NC(=O)c2ccc(S(=O)(=O)N3CC(C)OC(C)C3)cc2)cc1", "note": "(stereo not drawn)", "Potency": "inconclusive: 20.6 µM [falling, single point]"},
      {"smiles": "CCCCn1nc(C(=O)N2CCc3ccccc32)c2ccccc2c1=O", "Potency": "inconclusive: 29.1 µM [falling, single point]"},
      {"smiles": "CCn1nc2cc(C(=O)NCCc3cccs3)ccc2c1OC", "Potency": "inconclusive: 5.8 µM [activator, full curve]"},
      {"smiles": "CN1CCN(c2ccc(NC(=O)c3ccc4c(c3)OCCO4)cc2Cl)CC1", "Potency": "inconclusive: 2.91 µM [activator, full curve]"},
      {"smiles": "Cc1cc2c(cc1S(=O)(=O)CCC(=O)Nc1ccc(OC(F)(F)F)cc1)OCC(=O)N2", "Potency": "inconclusive: 23.1 µM [falling, partial curve, poor fit]"},
      {"smiles": "CCOc1ccc(NS(=O)(=O)c2ccc3c(c2)N(C(C)=O)CCO3)cc1", "Potency": "inconclusive: 18.4 µM [falling, partial curve, poor fit]"},
      {"smiles": "O=C(c1ccco1)N1CCCSC1=Nc1ccccc1", "Potency": "inconclusive: 6.51 µM [falling, partial curve, poor fit]"},
      {"smiles": "O=C(OCCC12CC3CC(CC(C3)C1)C2)c1ccc(NCc2cc(O)ccc2O)cc1", "Potency": "inconclusive: 29.1 µM [falling, single point]"},
      {"smiles": "CCCOc1ccc(C2C(C(=O)c3cc4ccccc4o3)=C(O)C(=O)N2c2cc(C)on2)cc1OC", "note": "(stereo not drawn)", "Potency": "inconclusive: 20.6 µM [falling, single point]"},
      {"smiles": "O=C(C1COc2ccccc2O1)N1CCN(S(=O)(=O)c2cc(F)ccc2F)CC1", "note": "(stereo not drawn)", "Potency": "inconclusive: 18.4 µM [falling, partial curve, poor fit]"},
      {"smiles": "O=C(Cc1cccc(C(F)(F)F)c1)Nc1cccc(S(=O)(=O)N2CCCC2)c1", "Potency": "inconclusive: 11.6 µM [falling, partial curve]"},
      {"smiles": "Cc1ccc(CNC(=O)C(=O)NCC2OCCCN2S(=O)(=O)c2ccc(F)cc2)cc1", "note": "(stereo not drawn)", "Potency": "inconclusive: 32.6 µM [falling, single point]"},
      {"smiles": "Cc1cccc(NC(=O)NC(C)CCc2ccccc2)c1", "note": "(stereo not drawn)", "Potency": "inconclusive: 18.4 µM [activator, partial curve, poor fit]"},
      {"smiles": "Cc1ccc(OCC(=O)OC(C)CN2CCCCC2)cc1", "note": "(stereo not drawn)", "Potency": "inconclusive: 4.11 µM [falling, partial curve, poor fit]"},
      {"smiles": "COc1ccccc1NC(=O)C1=C(C)NC2=C(C(=O)CC(c3ccc(OC)c(OC)c3)C2)C1c1coc2ccccc2c1=O", "note": "(stereo not drawn)", "activity change, negative = inhibition": "inactive: 4.71%"},
      {"smiles": "CCCn1nc(C(=O)NNC(=O)c2ccc(OC(F)F)cc2)c2ccccc2c1=O", "Potency": "inconclusive: 23.1 µM [falling, partial curve, poor fit]"},
      {"smiles": "S=c1[nH]nc(-c2ccncc2)n1/N=C/c1ccccc1", "Potency": "inconclusive: 0.0046 µM [falling, full curve, poor fit]"},
      {"smiles": "N#Cc1nc(-c2ccco2)oc1NCc1cccnc1", "activity change, negative = inhibition": "inactive: 11.1%"},
      {"smiles": "O=C(Nc1ccccn1)c1ccc(Br)c(S(=O)(=O)N2CCCCC2)c1", "activity change, negative = inhibition": "inactive: -3.22%"},
      {"smiles": "COc1ccc(NCc2nc3ccccc3n2CCOc2ccc(C)cc2)cc1", "Potency": "inconclusive: 18.4 µM [falling, single point]"},
      {"smiles": "COc1ccc(C(=O)/C=C/C(=O)N(Cc2ccc3c(c2)OCO3)C(C(=O)NC2CCCCC2)c2ccncc2)c(O)c1", "note": "(stereo not drawn)", "activity change, negative = inhibition": "inactive: 4.33%"},
      {"smiles": "CCOC(=O)c1c(C)nn(-c2ccc(NC(=O)c3c(C)noc3C)cc2)c1C", "Potency": "inconclusive: 10.3 µM [falling, partial curve, poor fit]"},
      {"smiles": "CCC(NC(=O)c1ccccc1Br)c1ccccc1", "note": "(stereo not drawn)", "activity change, negative = inhibition": "inactive: -7.55%"},
      {"smiles": "COc1ccc(C)cc1NS(=O)(=O)c1ccc(NS(=O)(=O)c2ccc(NC(C)=O)cc2)cc1", "Potency": "inconclusive: 16.4 µM [falling, single point]"},
      {"smiles": "O=C(c1cccc(Cl)c1)N1CCC2CC1c1cc(-c3ccc(F)cc3)ccc12", "note": "(stereo not drawn)", "Potency": "inconclusive: 25.9 µM [falling, partial curve, poor fit]"},
      {"smiles": "COc1ccc(OC)c(S(=O)(=O)N2CCN(c3ccc(F)cc3)CC2)c1", "Potency": "inconclusive: 23.1 µM [falling, single point]"},
      {"smiles": "Cc1cc(N(C)C)ccc1N=Nc1ccc2ncccc2c1", "Potency": "inconclusive: 14.6 µM [activator, partial curve]"},
      {"smiles": "COc1ccc(C)cc1NC(=O)CN1C(=O)COc2ccc(S(=O)(=O)N3CCCCCC3)cc21", "Potency": "inconclusive: 20.6 µM [falling, single point]"},
      {"smiles": "Cc1ccc(-c2cc(C(=O)N3CCCC(C(F)(F)F)C3)c3ccccc3n2)o1", "note": "(stereo not drawn)", "activity change, negative = inhibition": "inactive: -2.43%"},
      {"smiles": "CCCCOc1ccc(Cc2c(COCC)[nH]c(=S)[nH]c2=O)cc1", "Potency": "inconclusive: 18.4 µM [falling, single point]"},
      {"smiles": "CC(C)(C)CNC(=O)c1cccc2c1C(=O)c1ccc(N3CCCC3)cc1S2(=O)=O", "Potency": "inconclusive: 20.6 µM [falling, partial curve, poor fit]"},
      {"smiles": "CSc1ccc(CN(C)Cc2cc(=O)oc3c(C)c(C)ccc23)cc1", "Potency": "inconclusive: 6.51 µM [falling, full curve, poor fit]"},
      {"smiles": "O=C(NCc1cc(C(F)(F)F)ccc1Cl)c1cccc2c1C(=O)c1ccc(N3CCOCC3)cc1S2(=O)=O", "Potency": "inconclusive: 18.4 µM [falling, partial curve, poor fit]"},
      {"smiles": "CC(C)COc1ccc(S(=O)(=O)NNC(=O)c2cc3ccccc3o2)cc1", "activity change, negative = inhibition": "inactive: -6.53%"},
      {"smiles": "CCO[C@@H]1OC(C(=O)N2CCN(Cc3ccc4c(c3)OCO4)CC2)=C[C@H](C)[C@H]1CCCO", "Potency": "inconclusive: 9.2 µM [falling, partial curve, poor fit]"},
      {"smiles": "COC(=O)c1scc(C)c1NC(=O)c1ccccc1F", "Potency": "inconclusive: 11.6 µM [activator, partial curve]"},
      {"smiles": "Cc1cccc(NC(=O)C2CCCN(c3nnc(-n4c(C)ccc4C)s3)C2)c1C", "note": "(stereo not drawn)", "activity change, negative = inhibition": "inactive: -8.47%"},
      {"smiles": "O=C(Nc1ccc(N2CCCC2)cc1)c1cccc(Cl)c1Cl", "Potency": "inconclusive: 6.51 µM [activator, full curve, poor fit]"},
      {"smiles": "O=C(Cn1cnc2c(cnn2-c2ccc(F)cc2)c1=O)NCc1ccco1", "Potency": "inconclusive: 2.59 µM [falling, partial curve]"},
      {"smiles": "COc1ccc(-c2cc3ccccc3oc2=O)cc1", "Potency": "inconclusive: 8.2 µM [activator, partial curve]"},
      {"smiles": "CCOc1ccc(CN2CCNC(=O)C2CC(=O)NCc2cc(C)n(C)n2)cc1", "note": "(stereo not drawn)", "activity change, negative = inhibition": "inactive: 12.3%"},
      {"smiles": "CCOc1ccc(/C=N/n2cc(-c3ccccc3)[nH]c2=S)cc1", "Potency": "inconclusive: 18.4 µM [activator, single point]"},
      {"smiles": "O=C(COc1ccc(F)cc1)Nc1nccs1", "Potency": "inconclusive: 0.411 µM [activator, full curve]"},
      {"smiles": "CC(NC(=O)C(=O)NCCC1=CCCCC1)c1ccccc1", "note": "(stereo not drawn)", "activity change, negative = inhibition": "inactive: 13.6%"},
      {"smiles": "COc1cccc(CNC(=O)CCc2nc(-c3ccc(C)cc3)no2)c1", "Potency": "inconclusive: 2.31 µM [activator, full curve, poor fit]"},
      {"smiles": "CCCCCCCC(=O)NNC(=O)c1c(O)c2ccccc2n(CCC)c1=O", "Potency": "inconclusive: 29.1 µM [falling, single point]"},
      {"smiles": "CC(C)(C)n1nc(Cc2cccc3ccccc23)c2c(N)ncnc21", "Potency": "inconclusive: 29.1 µM [falling, single point]"},
      {"smiles": "CCOC(=O)c1c(C)[nH]c(C(=O)CN2C(=O)NC3(CCCC3)C2=O)c1C", "Potency": "inconclusive: 10.3 µM [activator, partial curve]"}
    ]}
  ]
}
